Data taken from the supplement of paper PMC10849652.
The list shows a part of the results.

The chains behind the UniProt entries cited, without tags or fusion partners. Where a name states a change or a piece, a line headed by the entry shows the natural chain unless it says otherwise.
UniProt P49427: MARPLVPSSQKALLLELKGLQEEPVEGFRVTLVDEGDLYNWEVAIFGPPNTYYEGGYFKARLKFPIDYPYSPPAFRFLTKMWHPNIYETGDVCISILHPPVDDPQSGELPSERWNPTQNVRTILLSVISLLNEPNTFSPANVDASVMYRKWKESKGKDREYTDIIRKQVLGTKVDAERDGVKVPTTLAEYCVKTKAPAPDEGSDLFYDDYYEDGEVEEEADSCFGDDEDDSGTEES
UniProt Q6P4E1: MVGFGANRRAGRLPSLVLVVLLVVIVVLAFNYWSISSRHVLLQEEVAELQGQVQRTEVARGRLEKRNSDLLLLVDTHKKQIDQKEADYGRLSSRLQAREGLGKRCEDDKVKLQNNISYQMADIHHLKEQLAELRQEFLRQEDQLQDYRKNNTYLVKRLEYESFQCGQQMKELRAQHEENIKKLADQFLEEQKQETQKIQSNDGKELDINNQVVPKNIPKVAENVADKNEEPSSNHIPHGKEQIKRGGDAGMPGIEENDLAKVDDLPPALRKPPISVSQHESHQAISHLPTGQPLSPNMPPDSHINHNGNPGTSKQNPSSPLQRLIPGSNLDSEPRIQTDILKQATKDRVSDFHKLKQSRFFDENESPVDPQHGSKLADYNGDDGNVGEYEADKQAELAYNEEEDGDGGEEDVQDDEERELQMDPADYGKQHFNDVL
UniProt Q4G0I0: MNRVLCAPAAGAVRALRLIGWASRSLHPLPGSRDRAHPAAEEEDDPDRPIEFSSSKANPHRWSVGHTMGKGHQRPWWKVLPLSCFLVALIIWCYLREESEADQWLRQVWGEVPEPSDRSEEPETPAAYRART
UniProt P40227, whole entry, looked up: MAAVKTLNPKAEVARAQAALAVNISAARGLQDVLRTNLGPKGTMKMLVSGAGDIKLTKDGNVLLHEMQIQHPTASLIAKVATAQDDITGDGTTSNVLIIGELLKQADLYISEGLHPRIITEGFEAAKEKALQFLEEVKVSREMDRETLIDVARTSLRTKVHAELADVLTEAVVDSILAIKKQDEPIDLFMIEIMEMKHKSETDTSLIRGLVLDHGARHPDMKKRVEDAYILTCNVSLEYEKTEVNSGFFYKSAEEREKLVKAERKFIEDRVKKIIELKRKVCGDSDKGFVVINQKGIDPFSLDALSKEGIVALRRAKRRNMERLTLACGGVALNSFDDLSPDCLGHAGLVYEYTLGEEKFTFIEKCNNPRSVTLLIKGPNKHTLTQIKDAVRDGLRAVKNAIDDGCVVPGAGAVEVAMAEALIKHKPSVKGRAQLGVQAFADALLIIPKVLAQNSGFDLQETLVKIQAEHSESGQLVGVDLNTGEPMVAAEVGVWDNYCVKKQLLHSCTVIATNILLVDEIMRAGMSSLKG
UniProt O60826, whole entry, looked up: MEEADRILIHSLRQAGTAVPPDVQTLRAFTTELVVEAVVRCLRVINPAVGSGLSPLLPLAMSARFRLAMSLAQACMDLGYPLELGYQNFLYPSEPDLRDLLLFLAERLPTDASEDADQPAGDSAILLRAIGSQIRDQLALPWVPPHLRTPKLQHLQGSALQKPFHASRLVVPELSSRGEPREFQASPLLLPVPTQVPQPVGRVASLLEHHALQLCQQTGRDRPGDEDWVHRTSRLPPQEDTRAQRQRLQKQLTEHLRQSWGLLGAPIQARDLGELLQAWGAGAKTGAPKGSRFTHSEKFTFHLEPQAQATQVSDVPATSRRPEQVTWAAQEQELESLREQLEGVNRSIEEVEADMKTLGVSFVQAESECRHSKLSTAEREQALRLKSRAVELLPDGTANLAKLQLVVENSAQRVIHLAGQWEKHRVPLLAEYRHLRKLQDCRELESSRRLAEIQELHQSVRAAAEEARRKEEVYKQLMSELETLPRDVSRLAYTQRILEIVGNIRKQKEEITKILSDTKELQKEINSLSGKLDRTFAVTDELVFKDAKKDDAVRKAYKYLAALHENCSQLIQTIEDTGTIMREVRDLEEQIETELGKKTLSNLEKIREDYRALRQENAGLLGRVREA
UniProt P60953, whole entry, looked up: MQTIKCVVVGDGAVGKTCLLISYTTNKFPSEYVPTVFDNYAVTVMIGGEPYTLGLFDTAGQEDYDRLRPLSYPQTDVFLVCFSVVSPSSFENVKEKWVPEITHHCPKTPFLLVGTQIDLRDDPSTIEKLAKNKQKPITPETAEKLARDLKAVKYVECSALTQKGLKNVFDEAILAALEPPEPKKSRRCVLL
UniProt P48960: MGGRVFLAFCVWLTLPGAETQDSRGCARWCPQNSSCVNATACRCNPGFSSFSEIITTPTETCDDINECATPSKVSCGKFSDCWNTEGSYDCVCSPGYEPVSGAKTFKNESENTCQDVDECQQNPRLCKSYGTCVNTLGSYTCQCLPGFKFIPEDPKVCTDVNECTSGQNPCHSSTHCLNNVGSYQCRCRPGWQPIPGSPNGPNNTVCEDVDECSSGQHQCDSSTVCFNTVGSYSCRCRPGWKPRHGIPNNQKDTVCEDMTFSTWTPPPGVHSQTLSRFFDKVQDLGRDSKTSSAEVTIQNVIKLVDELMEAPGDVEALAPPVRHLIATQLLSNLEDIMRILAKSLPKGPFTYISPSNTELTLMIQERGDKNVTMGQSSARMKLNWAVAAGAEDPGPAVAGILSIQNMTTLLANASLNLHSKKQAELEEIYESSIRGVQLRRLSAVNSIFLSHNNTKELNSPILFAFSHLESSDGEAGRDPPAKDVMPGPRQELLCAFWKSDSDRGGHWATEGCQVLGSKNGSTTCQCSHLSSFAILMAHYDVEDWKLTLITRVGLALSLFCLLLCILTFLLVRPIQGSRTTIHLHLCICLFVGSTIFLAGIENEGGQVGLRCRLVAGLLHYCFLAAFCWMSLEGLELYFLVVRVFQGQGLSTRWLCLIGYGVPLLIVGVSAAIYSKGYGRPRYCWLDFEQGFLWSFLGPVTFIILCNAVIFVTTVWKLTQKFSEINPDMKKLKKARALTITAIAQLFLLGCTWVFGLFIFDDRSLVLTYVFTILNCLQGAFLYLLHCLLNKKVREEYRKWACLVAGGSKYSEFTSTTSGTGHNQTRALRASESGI
UniProt Q86X55: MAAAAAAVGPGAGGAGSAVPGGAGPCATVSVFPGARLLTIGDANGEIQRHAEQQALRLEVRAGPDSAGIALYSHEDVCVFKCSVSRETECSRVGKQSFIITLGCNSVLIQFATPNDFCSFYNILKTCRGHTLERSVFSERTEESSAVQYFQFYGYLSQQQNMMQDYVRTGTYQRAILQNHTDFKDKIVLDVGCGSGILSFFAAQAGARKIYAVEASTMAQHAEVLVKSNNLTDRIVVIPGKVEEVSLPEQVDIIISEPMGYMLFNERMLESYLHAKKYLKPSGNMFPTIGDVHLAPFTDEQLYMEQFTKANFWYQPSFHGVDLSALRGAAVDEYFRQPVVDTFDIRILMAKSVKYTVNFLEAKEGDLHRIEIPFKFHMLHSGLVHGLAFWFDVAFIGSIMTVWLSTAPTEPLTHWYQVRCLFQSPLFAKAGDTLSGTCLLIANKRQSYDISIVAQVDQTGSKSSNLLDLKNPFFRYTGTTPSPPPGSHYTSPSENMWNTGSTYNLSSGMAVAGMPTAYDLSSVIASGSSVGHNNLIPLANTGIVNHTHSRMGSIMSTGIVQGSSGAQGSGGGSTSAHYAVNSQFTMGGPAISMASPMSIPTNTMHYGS
UniProt O15446, whole entry, looked up: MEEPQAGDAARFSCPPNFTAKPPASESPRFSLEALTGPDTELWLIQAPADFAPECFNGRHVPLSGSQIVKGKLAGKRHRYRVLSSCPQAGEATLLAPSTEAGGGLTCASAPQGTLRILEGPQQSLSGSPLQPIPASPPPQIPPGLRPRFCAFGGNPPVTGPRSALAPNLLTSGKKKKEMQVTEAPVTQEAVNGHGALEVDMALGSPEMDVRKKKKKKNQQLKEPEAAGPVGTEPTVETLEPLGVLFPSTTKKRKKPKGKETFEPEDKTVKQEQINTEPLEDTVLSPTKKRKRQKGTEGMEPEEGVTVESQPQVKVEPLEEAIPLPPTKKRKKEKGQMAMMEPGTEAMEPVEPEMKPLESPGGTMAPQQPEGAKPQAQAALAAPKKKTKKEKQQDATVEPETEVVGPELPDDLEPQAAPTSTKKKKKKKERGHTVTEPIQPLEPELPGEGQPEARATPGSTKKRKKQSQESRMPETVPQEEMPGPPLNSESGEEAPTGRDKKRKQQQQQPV
UniProt P19256, whole entry, looked up: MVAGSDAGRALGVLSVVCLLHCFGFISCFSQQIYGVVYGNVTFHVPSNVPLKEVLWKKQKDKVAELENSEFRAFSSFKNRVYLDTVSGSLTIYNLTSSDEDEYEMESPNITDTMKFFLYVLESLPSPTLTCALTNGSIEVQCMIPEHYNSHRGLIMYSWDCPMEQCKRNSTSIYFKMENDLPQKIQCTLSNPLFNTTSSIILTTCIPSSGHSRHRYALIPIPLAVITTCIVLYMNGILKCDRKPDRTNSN
UniProt Q08722, whole entry, looked up: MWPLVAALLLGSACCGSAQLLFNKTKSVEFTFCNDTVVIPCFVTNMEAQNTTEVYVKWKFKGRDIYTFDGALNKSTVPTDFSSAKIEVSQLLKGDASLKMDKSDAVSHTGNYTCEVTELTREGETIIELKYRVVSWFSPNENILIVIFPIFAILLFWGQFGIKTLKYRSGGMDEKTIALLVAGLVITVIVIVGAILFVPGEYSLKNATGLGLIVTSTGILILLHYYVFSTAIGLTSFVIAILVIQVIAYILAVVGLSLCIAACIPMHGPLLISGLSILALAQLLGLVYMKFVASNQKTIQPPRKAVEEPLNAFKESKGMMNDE
UniProt Q9Y5K6, whole entry, looked up: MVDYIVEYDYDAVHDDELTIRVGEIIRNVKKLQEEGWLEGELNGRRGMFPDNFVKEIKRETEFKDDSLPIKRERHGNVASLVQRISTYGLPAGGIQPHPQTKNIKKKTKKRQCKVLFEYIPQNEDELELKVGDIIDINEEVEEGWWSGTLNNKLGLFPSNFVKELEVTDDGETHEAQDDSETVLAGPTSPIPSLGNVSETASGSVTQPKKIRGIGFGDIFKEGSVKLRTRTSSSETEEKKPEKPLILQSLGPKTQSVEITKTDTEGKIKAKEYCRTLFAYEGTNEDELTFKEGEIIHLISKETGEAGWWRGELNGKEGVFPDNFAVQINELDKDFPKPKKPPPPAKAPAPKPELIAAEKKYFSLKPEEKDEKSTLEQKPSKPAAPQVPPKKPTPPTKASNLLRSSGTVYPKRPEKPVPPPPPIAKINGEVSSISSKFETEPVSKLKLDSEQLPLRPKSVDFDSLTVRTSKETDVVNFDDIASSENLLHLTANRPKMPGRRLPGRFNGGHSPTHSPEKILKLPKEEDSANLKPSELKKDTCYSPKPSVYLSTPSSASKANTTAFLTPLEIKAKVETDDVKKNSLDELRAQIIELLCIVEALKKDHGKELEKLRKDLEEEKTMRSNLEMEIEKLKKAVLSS
UniProt P20138, whole entry, looked up: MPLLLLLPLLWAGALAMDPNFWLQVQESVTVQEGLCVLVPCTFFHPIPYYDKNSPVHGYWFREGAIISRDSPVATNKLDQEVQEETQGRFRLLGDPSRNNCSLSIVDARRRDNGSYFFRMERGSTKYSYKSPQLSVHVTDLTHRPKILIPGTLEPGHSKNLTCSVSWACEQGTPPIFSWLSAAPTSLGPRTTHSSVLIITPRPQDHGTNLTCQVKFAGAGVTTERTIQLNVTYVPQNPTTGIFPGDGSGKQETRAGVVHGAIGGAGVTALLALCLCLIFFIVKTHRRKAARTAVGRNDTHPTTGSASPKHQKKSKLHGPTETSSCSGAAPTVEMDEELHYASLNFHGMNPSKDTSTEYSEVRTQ
UniProt Q16204: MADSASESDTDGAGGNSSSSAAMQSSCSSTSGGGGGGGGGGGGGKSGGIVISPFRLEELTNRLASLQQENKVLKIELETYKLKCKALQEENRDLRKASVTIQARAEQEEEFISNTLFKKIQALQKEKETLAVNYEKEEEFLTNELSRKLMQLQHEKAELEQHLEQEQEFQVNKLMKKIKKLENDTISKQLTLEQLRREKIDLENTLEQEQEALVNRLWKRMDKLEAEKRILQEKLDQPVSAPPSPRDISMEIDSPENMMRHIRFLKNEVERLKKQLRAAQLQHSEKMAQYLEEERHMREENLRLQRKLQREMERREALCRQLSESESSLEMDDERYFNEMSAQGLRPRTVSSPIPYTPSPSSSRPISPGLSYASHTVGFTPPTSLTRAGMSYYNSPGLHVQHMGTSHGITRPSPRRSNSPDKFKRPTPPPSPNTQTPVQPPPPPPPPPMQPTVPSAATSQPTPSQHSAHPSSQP
UniProt Q04900: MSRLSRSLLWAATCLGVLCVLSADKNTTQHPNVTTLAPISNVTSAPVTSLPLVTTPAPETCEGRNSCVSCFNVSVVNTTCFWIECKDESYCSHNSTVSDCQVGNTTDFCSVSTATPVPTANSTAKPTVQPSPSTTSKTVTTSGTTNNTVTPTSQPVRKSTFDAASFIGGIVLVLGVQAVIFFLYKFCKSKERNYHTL
UniProt Q9BV29: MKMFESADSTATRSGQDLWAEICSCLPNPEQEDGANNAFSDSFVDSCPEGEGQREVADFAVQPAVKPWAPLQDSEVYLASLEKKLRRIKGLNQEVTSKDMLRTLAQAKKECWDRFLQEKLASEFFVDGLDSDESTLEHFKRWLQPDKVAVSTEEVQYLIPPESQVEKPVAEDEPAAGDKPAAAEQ

compound: c1cn2cc(-c3ccc4cn[nH]c4c3)nc(Nc3ccc(N4CCOCC4)cc3)c2n1 [entospletinib]; assay: log2 fold change, soluble protein after heating vs DMSO (PISA); higher = thermal stabilisation; K562 cells, 10 uM, 30 min; active = over 0.2 and 3.5 SD of the protein, either way, in both replicates (recomputed)
Method in brief: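 K562 cells at 2×10^6 cells/mL were treated with 10 μM compound for 30 min. Aliquots were heated for 3 min across 48°C-58°C, pooled, and extracted in PBS with 0.5% NP-40 at 4°C; soluble protein was the supernatant after 21,000xg for 90 min. Soluble protein was quantified by TMTpro 16plex LC-MS/MS with channel sums equalised, and reported as log2 fold change in thermal stability against DMSO controls, with values from duplicates.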

log2 fold change, inactive:
CDC34 (UniProt P49427) 0.054
CASC4 (UniProt Q6P4E1) -0.027
CCSMST1 (UniProt Q4G0I0) -0.039
CAST isoform 6 (UniProt P20810) 0.029
CBARP (UniProt Q8N350) 0.055
CD46 isoform 2 (UniProt P15529) -0.053
CDC37 (UniProt K7EKQ2) -0.179
CCDC47 (UniProt Q96A33) -0.031
CCDC58 (UniProt Q4VC31) -0.011
CCT6A (UniProt P40227) -0.047
CCDC22 (UniProt O60826) 0.001
CDC42 (UniProt P60953) 0.077
CD97 (UniProt P48960) 0.032
CBR4 (UniProt Q8N4T8) 0.019
CARM1 (UniProt Q86X55) -0.008
CD3EAP isoform 2 (UniProt O15446) 0.036
CCPG1 isoform 5 (UniProt Q9ULG6) -0.046
CD58 (UniProt P19256) 0.01
CD47 (UniProt Q08722) -0.028
CD2AP (UniProt Q9Y5K6) -0.029
CD33 (UniProt P20138) 0.032
CCDC6 (UniProt Q16204) -0.033
CBX3 (UniProt Q13185) 0.092
CCDC91 (UniProt Q7Z6B0) -0.005
CCDC85C (UniProt A6NKD9) 0.159
CD164 (UniProt Q04900) -0.215
CBL (UniProt P22681) 0.019
CC2D1A (UniProt Q6P1N0) 0.013
CCDC51 (UniProt Q96ER9) 0.005
CCDC32 isoform 2 (UniProt Q9BV29) -0.025

Copied from the results shown (2 entries):
log2 fold change, inactive:
CAST isoform 6 (UniProt P20810) 0.029
CBARP (UniProt Q8N350) 0.055
